Experimental data published in the supplement of paper PMC4635364.
Counter-ions that a name gives are not always drawn. Some of the results follow. Repeats in this data set agree poorly, so a single value says little.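 Cells: ReNCell VM human fetal ventral-midbrain neural progenitors, differentiated mitogen-free. Blinded raters compared doublecortin-stained (early neurons) or tyrosine hydroxylase-stained (dopaminergic neurons) images with untreated wells, where 0 means no change. After repeats and both raters were averaged, compounds scoring 2 or above became hits for retesting.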

These molecules were tested on ReNCell VM (assay: dopaminergic neuron differentiation score (TH+ cell fraction vs untreated, manual image score) (score (0 to 3)); higher = more TH+ dopaminergic neuron differentiation). Conditions: library: Tocriscreen; 2 uM; 4 weeks; BDNF 10 ng/ml + GDNF 10 ng/ml.

Dopaminergic neuron differentiation score, inactive:
O=c1cc(N2CCNCC2)oc2c(-c3ccccc3)cccc12 0
CC[C@@H]1C(=O)OC[C@@H]1Cc1cncn1C [Pilocarpine hydrochloride] 0
CCn1c(=O)n(C2=C(CO)CN(CC3CCCCCCC3)CC2)c2ccccc21 0
CN(C)CCCn1cc(C2=C(c3c[nH]c4ccccc34)C(=O)NC2=O)c2ccccc21 0
COc1ccc2c(c1OC)C(=O)O[C@@H]2[C@H]1c2c(cc3c(c2OC)OCO3)CCN1C [Noscapine hydrochloride] 0
